Laboratory results from publication PMC11405683.
Results are given in words; binding and its absence hold for the method and conditions named. In cells and extracts the contact can be indirect. Some entries that bind do so weakly or less than the wild type. Where a sequence is shown, tags or fusion partners need not be part of it.

The chains behind the UniProt entries cited, without tags or fusion partners. Residues count along the entry.
UniProt P54811: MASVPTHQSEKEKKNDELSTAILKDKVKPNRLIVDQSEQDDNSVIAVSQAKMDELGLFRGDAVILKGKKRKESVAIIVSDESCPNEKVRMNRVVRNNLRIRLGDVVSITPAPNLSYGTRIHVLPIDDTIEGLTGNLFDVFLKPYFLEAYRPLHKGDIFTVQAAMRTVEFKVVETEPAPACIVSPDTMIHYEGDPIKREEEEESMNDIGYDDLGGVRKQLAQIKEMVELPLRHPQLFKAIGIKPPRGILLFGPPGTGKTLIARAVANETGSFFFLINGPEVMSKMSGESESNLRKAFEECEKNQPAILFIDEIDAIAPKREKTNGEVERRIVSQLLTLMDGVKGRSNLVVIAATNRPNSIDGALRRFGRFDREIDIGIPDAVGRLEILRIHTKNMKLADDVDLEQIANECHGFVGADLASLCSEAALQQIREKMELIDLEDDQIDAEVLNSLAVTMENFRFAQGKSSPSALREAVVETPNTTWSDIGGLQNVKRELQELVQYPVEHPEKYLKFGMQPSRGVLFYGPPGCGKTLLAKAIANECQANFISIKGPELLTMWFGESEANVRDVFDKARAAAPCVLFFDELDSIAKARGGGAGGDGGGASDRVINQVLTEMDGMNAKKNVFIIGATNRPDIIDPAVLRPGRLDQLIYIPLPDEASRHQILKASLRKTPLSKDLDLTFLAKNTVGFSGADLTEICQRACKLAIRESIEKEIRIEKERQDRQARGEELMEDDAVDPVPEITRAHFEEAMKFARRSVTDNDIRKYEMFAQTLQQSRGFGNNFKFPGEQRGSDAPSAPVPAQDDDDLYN
UniProt P20163, residues 18-657: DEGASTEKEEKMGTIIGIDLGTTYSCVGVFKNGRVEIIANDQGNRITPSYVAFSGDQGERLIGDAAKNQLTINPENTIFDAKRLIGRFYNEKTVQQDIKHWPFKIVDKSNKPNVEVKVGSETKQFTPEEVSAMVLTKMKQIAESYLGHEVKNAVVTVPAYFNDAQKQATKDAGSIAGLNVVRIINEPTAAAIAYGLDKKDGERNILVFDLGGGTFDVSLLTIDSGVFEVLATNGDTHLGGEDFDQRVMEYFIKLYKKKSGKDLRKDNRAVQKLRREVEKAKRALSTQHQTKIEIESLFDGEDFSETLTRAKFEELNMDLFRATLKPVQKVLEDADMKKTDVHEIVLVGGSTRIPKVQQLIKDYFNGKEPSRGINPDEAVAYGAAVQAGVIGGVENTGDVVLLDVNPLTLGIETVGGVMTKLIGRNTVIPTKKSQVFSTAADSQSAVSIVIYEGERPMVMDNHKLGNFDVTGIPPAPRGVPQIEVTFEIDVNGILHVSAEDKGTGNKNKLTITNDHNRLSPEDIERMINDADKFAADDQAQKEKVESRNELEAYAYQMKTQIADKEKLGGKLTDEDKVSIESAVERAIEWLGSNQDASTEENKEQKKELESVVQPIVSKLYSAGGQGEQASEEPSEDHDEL

Key:
[1] = target: P97(CDC-48.1)::GFP::HA::6×His (C. elegans) (UniProt P54811); assay: co-IP; HEK293T cells co-expressing TRA-2 and P97::GFP::HA::6×His, with or without MG132 (10 μM, 8 h); P97 held on GFP-Trap beads, five washes; anti-Flag blot for TRA-2
HSP-4::GFP (C. elegans) = HSP-4::GFP (C. elegans) (UniProt P20163); assay: co-IP; HEK293T cells co-transfected; lysis buffer 150 mM NaCl, 50 mM Tris pH 7.4, 0.5% Triton X-100; HSP-4::GFP held on GFP-Trap magnetic beads at 4 °C overnight, five washes, acidic glycine elution; anti-Flag blot for the partner

Row | binding [1] | binding (HSP-4::GFP (C. elegans)) | Binder
1 | binds | binds | TRA-2::Flag::HA (receptor, UniProt P34709 32-1475) IDYQEKSIFPSFVSQGFFETRTNNEEYIIEKIAQTQENGVDMRSTLHFTQHGYLLNNISNLKIKFRQKTYTLNDVCFKPHITIFQQSSSSDQNEYPHYIQRLLLEMQRLSPCLIVTPLNCFYDIYRIHGEISNWNKNTDFLNRRLRNSYIEAIGENDERPYVKSNYGPSLIKSWADHMFDLPSKSFTNSTKDALFQKIKLWLLSIEPRQKTCAASIHSCDTPLDSEHYFNICTDMQSVDNFAEKKTKFKLEDVDEEFAMNLDCVDDQEQFIEWMQELEIRKMYSHVTEKPDYPNVVNQTCDKIFHDLNSTGIEFFDGSRSFSSTKSQFDTMQTEIVLLTPEMLLSAMQHSDFVNGFESIWTIEKAEELIHEFRLALKEETEKFKENRMSKMIRVTSRVLDNTVTTKLQSFSEKQTIHFVVNVHSLIVILFTIFVWSGAPLRSAFMFFVRDALTCLLFCFVCSTDGVIVLDTELIKYIIVLTLANLYFTTRSSFCTERLSRCIQREKRFPINSNFASLITVDTMTDSRQIQYFLSTVTKYQAAQDSYSNELFERFPKNWGCTSILIFPIVFVYWYFIDSNFDKICVSVLPSFCLAAGEELFAKNMFWKEREAMQAKQRLENEEQAESITGSSLEKLFAGNKPVSNTDKANIVKKSSIIRNQKPCLQDLSPGTYDVSNFMKYPHQASRIFREKIIGLYLRILKLRTLGVILCIPAILLIVISIGLLFIPVKRETLHTDSKQDDIFIEFEIFNFSTNWKIVNQNLKQFSEDIESIGTLYTISNWQKSFERFEQETNKNASAEWNILFKWINDEPINSAVTLFSEKSSGNQTIANPFKFRLRYGFDAKNETTVIEIVQKIDELLSKCSKNLSPKAVGVLYEHYHRIAVVWNLFAFNQLTTAGIFIILLSIITFIFAITPTIKATFLFSLLVVGTQIEVAALVHLFSLDHHQIYTNLALFAGFLAAWDPFCALLRYRRRILYKSETRRTPELASKRRVLLPIVATADIAQFFVLLITAFSILAIICSIVPELNIFFVPTVILIVIQIVAVFNSIIVSIATKQMFESEVRHYLHRDLRGSTTAVRVYNLVQKQRLASSLDEPQVELDEFSIKRSSPPCRYYAPPPKYSCKKRSRSSDEDEDSDPNQPGPSNRRSPKTGNKRVRGNGDNTELYIPNRYELIVSGKSVGGNTSAAWNGPGSTLEQNMNALEECFELGVDEYDFDEHDGDEGCELVQDMLDRERNLMNKRSTAQRRESRNIEKMKKSQENLDKEKSEEKISESKKNQDDSIESPNLPGTPANLPVDEPLPPVGRLYIVEHVLPEEYRRDPLTEPPSMEDCIRAHSDPNLPPHPRADQYPASFTRPMVEYCEDIYWTHRTGQLPPGLQVPRRPYDYYHITERTPPPEDLNWVPPAESPPIPIPQQAFDLLEERRRNHREQQDEAREGDLSDPEV
2 |  | no binding | 3×Flag::FEM-3 (protein, UniProt P34691 1-388) MEVDPGSDDVEADRETRAQKLKLKRNVKFRAQMRRFDEYCGVTNLTVDDLNWPLISGIPLQRQRLTGATYYDDSLLDQNPWDEFSIDRFLEITSIQLITAGAGYERNDEITRFVFQRTMKTIVTYCNFMYDLARRNGKVQITRFELQDLIHRDEFRFYMYFRQFLPNPDPNCTAFSNHYTSLLHTLYFNIPGMPQFWNNSQMYNYAATRGQRLVQNIAAFYPPEYFWNEDESKYHTTFVVPRGTEFSKFYARRFHEALGMPPLENEIITVLDWLAKLCILEIVYHTTIWCDITGFGGLPRIEHYRLAMENVEDIIFDLAIDDFSISRLQLQISPFEISRYSPLDVSGYYETIKRKKDIEEYQNRFYEVHYSDDVRIMNVYATDCSRKR
